# Values joined by “and” are separate entries in the source; they are usually repeats but may differ in a detail not shown here. Equal entries are not always repeated. Hit rate of the full screen: of about 390,000 compounds, about 4,000 (1%) were called active. Inconclusive means that the source gave no clear call. Such entries were picked first, then a sample of the others. Calls come from the whole dose curve; as a rule, active = well fitted inhibition curve with a large enough effect; inconclusive = small, poorly fitted or top-dose-only effect, or another doubt; inactive = no such curve, though single readings can be large or run the other way. Potencies of inconclusive entries are doubtful fits and often do not repeat.
# Chains of the proteins cited; added tags and fusions are not shown. Lines headed by an entry give the natural chain unless they say otherwise; changes in a name come on top.
# UniProt Q9UNA4: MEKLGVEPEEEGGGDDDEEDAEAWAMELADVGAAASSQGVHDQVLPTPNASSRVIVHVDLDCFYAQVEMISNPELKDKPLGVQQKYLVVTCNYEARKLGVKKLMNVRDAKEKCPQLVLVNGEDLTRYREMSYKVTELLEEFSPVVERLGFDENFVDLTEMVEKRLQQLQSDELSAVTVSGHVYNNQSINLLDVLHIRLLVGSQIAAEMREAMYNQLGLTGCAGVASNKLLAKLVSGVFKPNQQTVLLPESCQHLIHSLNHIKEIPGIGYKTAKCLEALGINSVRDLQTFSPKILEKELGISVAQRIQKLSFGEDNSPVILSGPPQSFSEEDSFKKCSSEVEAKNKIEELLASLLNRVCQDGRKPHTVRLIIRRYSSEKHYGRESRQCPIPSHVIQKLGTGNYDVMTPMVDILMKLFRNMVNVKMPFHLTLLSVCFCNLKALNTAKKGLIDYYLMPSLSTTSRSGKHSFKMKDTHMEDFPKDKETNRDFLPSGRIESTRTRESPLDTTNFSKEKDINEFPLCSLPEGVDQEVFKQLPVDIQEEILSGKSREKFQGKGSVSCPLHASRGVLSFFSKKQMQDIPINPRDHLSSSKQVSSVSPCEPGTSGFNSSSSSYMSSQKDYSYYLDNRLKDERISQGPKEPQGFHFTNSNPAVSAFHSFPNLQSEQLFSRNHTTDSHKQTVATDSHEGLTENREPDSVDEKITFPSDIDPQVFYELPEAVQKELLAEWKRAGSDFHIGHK
# Biological target: DNA polymerase iota (Homo sapiens) (UniProt Q9UNA4)
# Assay: qHTS for Inhibitors of Polymerase Iota
# Conditions: Pol iota fluorescent replication assay, 10 min; series mostly up to 115 µM
# Summary of the method: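 Pol iota at 10 nM preincubated 15 min with compounds at room temperature; reaction started with fluorescent substrate, 50 nM final. Fluorescence read kinetically at 0 and 10 min; buffer-only wells as negative control.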
# Potency is the fitted concentration of half-maximal effect.
row,Structure (SMILES),Potency
1,C=C(c1ccc2ccccc2n1)c1cccs1,inactive
2,Nc1nc(-c2c[nH]c3ccccc23)cs1,"inconclusive: 28.2 µM [inhibitor, partial curve, poor fit]"
3,COc1ccc(CN2CC[C@H]3C=CC[C@@H](C(=O)NC4CCCCC4)[C@H]3C2=O)cc1OC,"inconclusive: 89.1 µM [inhibitor, partial curve, poor fit]"
4,CCc1nnc(NC(=O)c2nc(S(=O)(=O)Cc3ccc(C)cc3)ncc2Cl)s1,"inconclusive: 11.2 µM [inhibitor, partial curve, poor fit] and inconclusive: 31.6 µM [inhibitor, partial curve, poor fit]"
5,Nc1ccccc1SSc1ccccc1N,"inconclusive: 22.4 µM [inhibitor, partial curve, poor fit]"
6,CC(/C=N/Nc1ncc(C)c(=O)[nH]1)=C\c1ccccc1,"inconclusive: 89.1 µM [inhibitor, single point]"
7,Cc1cc(C)cc(OCC(=O)Nc2nc3c(s2)CC(C(C)(C)C)CC3)c1 (stereo not drawn),inactive
8,COc1cc(S(=O)(=O)NCCOC23CC4CC(CC(C4)C2)C3)c(OC)cc1Cl,"inconclusive: 100 µM [inhibitor, partial curve, poor fit]"
9,Cc1cccc(-n2c(SCC(=O)O)nc3sc4c(c3c2=O)CCC4)c1,"inconclusive: 20 µM [inhibitor, full curve, poor fit]"
10,O=C(/C=C/c1ccccc1)N1CCC(c2ccccc2)C1 (stereo not drawn),"inconclusive: 89.1 µM [inhibitor, single point]"
11,CC(c1ccccc1)n1c(-c2ccncc2)n[nH]c1=S (stereo not drawn),"inconclusive: 89.1 µM [inhibitor, single point]"
12,CC(=O)c1ccc(S(=O)(=O)NCCc2cn3ccc(C)cc3n2)cc1,"inconclusive: 5.62 µM [inhibitor, full curve, poor fit]"
13,Cc1ccnc(NC(=O)COC(=O)c2ccc(F)cc2F)n1,"inconclusive: 44.7 µM [inhibitor, partial curve]"
14,O=C1/C(=C\c2cccc(O)c2)SC(=S)N1Cc1ccccc1,inactive
15,COc1ccc(S(=O)(=O)N2CCCCCC2)cc1C(=O)N(C)CC(=O)Nc1ccc(F)cc1,"inconclusive: 56.2 µM [inhibitor, partial curve, poor fit]"
16,COc1ccc(CN(C)CC(=O)Nc2c(C)cccc2C)c(OC)c1,inactive
17,COc1cccc(CNC(=O)Cn2c(=O)ccc3cc(S(=O)(=O)N4CCC(C)CC4)ccc32)c1,inactive
18,Cc1ccc(C)c(OCC(=O)Nc2cccc(S(=O)(=O)NC3=NCCCCC3)c2)c1,"inconclusive: 100 µM [inhibitor, single point]"

# Part of the list above in order of formula weight, falling:
row,Structure (SMILES),Potency
3,COc1ccc(CN2CC[C@H]3C=CC[C@@H](C(=O)NC4CCCCC4)[C@H]3C2=O)cc1OC,"inconclusive: 89.1 µM [inhibitor, partial curve, poor fit]"
14,O=C1/C(=C\c2cccc(O)c2)SC(=S)N1Cc1ccccc1,inactive
6,CC(/C=N/Nc1ncc(C)c(=O)[nH]1)=C\c1ccccc1,"inconclusive: 89.1 µM [inhibitor, single point]"

# Source: PubChem BioAssay AID588590 (National Center for Advancing Translational Sciences (NCATS), 2011)
